The list is a part of this screen's results and no random one: it is rich in T/C values a quarter to a half above the control, in often repeated tests (any T/C) and in doses without a T/C. Further doses and runs are listed elsewhere. T/C: endpoint of the treated group in % of that of the vehicle group. Some doses have a count of surviving animals in place of a T/C: the source files T/C as zero there, which appears to mark a toxic dose or a test without result, not a measured value. Some doses without a T/C left all or most animals alive at the check, yet need not have been tolerated: survival well below the control is almost never listed, so the zero probably covers shortened survival too. Survivors were counted at the toxicity check, usually on the fifth day, unless a day is given; later deaths do not show. Schedules are NCI's codes, read here as Q, the interval in days (D) or hours (H), X, the number of doses. For survival time, this PubChem deposit counts one and a half times the control or more as active, and values a quarter to a half above the control carry no call in these data; other NCI protocols may use other cut-offs.
System: L1210 leukemia ip in BDF1 mice, survival T/C
Assay: NCI In Vivo Anticancer Drug Screen. Data for tumor model L1210 Leukemia (intraperitoneal) in B6D2F1 (BDF1) mice
Settings: T/C endpoint: mean survival time, higher T/C = longer survival
[1] = dose: 40.0 mg/kg/injection, schedule: Q01DX001 (ip), vehicle: carboxymethylcellulose (CMC)
[2] = dose: 300.0 mg/kg/injection, schedule: Q01DX001 (ip), vehicle: other
[3] = dose: 100.0 mg/kg/injection, schedule: Q01DX009 (ip), vehicle: saline

O=[N+]([O-])c1cc(S(=O)(=O)F)ccc1F was tested, and the survivor count (dose: 1.25 mg/kg/injection, schedule: Q04DX003 (ip), vehicle: carboxymethylcellulose (CMC)) was 6 of 6, the survivor count (dose: 2.5 mg/kg/injection, schedule: Q04DX003 (ip), vehicle: carboxymethylcellulose (CMC)) was 6 of 6 and the survivor count (dose: 5.0 mg/kg/injection, schedule: Q04DX003 (ip), vehicle: carboxymethylcellulose (CMC)) was 2 of 6. For the same compound, the survivor count (dose: 7.7 mg/kg/injection, schedule: Q01DX009 (ip), vehicle: other) was 5 of 6, the survivor count (dose: 10.0 mg/kg/injection, schedule: Q04DX003 (ip), vehicle: carboxymethylcellulose (CMC)) was 2 of 6 and the survivor count (dose: 11.5 mg/kg/injection, schedule: Q01DX009 (ip), vehicle: other) was 0 of 6. The survivor count (dose: 20.0 mg/kg/injection, schedule: Q01DX001 (ip), vehicle: carboxymethylcellulose (CMC)) was 3 of 6, the survivor count [1] was 1 of 6 and the survivor count (dose: 75.0 mg/kg/injection, schedule: Q01DX001 (ip), vehicle: other) was 0 of 6. The survivor count (dose: 150.0 mg/kg/injection, schedule: Q01DX001 (ip), vehicle: other) was 0 of 6 and the survivor count [2] was 0 of 6.

Cc1cccc(SC(=O)Nc2ccccc2C(F)(F)F)c1 was tested, and the survivor count (dose: 200.0 mg/kg/injection, schedule: Q01DX009 (ip), vehicle: Klucel (hydroxypropylcellulose) (HPC)) was 3 of 6 and the survivor count (dose: 400.0 mg/kg/injection, schedule: Q01DX009 (ip), vehicle: Klucel (hydroxypropylcellulose) (HPC)) was 2 of 6.

With C(=N\Nc1ccccc1)/c1cccc[n+]1Cc1ccccc1 the survivor count [2] was 3 of 6.

For c1ccc(C2(c3ccccc3)CC([P+](c3ccccc3)(c3ccccc3)c3ccccc3)=NN2CC[P+](c2ccccc2)(c2ccccc2)c2ccccc2)cc1, the survivor count (dose: 12.5 mg/kg/injection, schedule: Q01DX001 (ip), vehicle: saline) was 1 of 6, the survivor count (dose: 25.0 mg/kg/injection, schedule: Q01DX001 (ip), vehicle: saline) was 0 of 6 and the survivor count (dose: 50.0 mg/kg/injection, schedule: Q01DX001 (ip), vehicle: saline) was 0 of 6. The survivor count (dose: 100.0 mg/kg/injection, schedule: Q01DX001 (ip), vehicle: saline) was 0 of 6, the survivor count (dose: 200.0 mg/kg/injection, schedule: Q01DX001 (ip), vehicle: saline) was 0 of 6 and the survivor count (dose: 400.0 mg/kg/injection, schedule: Q01DX001 (ip), vehicle: saline) was 0 of 6.

For CN(N=O)P(=O)(Nc1ccccc1)Nc1ccccc1, the T/C [3] was 136 % of control, the survivor count (dose: 200.0 mg/kg/injection, schedule: Q04DX003 (ip), vehicle: saline sonified) was 5 of 6 and the survivor count (dose: 400.0 mg/kg/injection, schedule: Q04DX003 (ip), vehicle: saline sonified) was 0 of 6.

With CC(Cc1ccccc1)NC(=O)NCCCl (stereo not given) the survivor count (dose: 400.0 mg/kg/injection, schedule: Q04DX003 (ip), vehicle: Klucel (hydroxypropylcellulose) (HPC)) was 2 of 6.

C=CCOc1ccccc1OC was tested, and the survivor count (dose: 400.0 mg/kg/injection, schedule: Q04DX003 (ip), vehicle: saline with Tween-80) was 3 of 6.

In the case of C[N+](C)(C)Cc1ccccc1/C(=N\O)c1ccccc1, the survivor count [1] is reported as 0 of 6 and the survivor count (dose: 80.0 mg/kg/injection, schedule: Q01DX001 (ip), vehicle: carboxymethylcellulose (CMC)) is reported as 1 of 6.

In the case of COc1cc2cc[n+]3c(C)c4cc5c(cc4cc3c2cc1OC)OCO5 (tested in a mixture with another compound), the T/C (dose: 10.0 mg/kg/injection, schedule: Q01DX009 (ip), vehicle: saline) is reported as 133 % of control, the survivor count [3] is reported as 6 of 6 and the survivor count (dose: 200.0 mg/kg/injection, schedule: Q01DX009 (ip), vehicle: saline) is reported as 5 of 6.

O=C(CF)NC1C(O)OC(CO)C(O)C1O (stereo not given) was tested, and the survivor count (dose: 100.0 mg/kg/injection, schedule: Q04DX003 (ip), vehicle: saline) was 6 of 6 and the survivor count (dose: 200.0 mg/kg/injection, schedule: Q04DX003 (ip), vehicle: saline) was 0 of 6.

CCCCCCCCCCCCOP(=S)(S)OCCCCCCCCCCCC (tested in a mixture with another compound) was tested, and the survivor count (dose: 100.0 mg/kg/injection, schedule: Q01DX009 (ip), vehicle: Klucel (hydroxypropylcellulose) (HPC)) was 1 of 3, the survivor count (dose: 200.0 mg/kg/injection, schedule: Q04DX002 (ip), vehicle: Klucel (hydroxypropylcellulose) (HPC)) was 1 of 3 and the survivor count (dose: 400.0 mg/kg/injection, schedule: Q04DX002 (ip), vehicle: Klucel (hydroxypropylcellulose) (HPC)) was 0 of 3.

From PubChem BioAssay AID248 (DTP/NCI, 2004)
